# Primary screen of a compound library

Protein sequences, listed by entry. Tags and fused reporters are not part of them.
UniProt E9BF75, entry or part of it: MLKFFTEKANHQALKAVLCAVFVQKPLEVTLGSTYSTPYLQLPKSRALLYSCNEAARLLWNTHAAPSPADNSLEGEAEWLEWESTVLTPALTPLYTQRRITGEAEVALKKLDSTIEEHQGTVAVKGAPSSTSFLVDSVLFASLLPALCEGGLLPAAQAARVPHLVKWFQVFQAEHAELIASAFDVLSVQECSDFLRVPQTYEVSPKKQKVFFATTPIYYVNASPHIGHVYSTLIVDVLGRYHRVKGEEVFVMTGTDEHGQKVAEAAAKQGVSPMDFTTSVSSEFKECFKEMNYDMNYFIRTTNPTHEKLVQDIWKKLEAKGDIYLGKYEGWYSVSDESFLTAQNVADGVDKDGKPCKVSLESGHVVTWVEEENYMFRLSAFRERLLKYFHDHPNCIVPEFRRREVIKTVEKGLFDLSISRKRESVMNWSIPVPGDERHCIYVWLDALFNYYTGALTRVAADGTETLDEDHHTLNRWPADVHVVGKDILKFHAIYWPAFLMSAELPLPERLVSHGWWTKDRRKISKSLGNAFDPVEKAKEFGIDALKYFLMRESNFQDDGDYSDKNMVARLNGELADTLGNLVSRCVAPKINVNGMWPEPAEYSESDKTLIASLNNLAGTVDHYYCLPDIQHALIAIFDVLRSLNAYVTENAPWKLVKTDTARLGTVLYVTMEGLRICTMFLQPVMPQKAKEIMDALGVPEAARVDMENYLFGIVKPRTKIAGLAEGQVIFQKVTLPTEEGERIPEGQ

Mtb heat-shock: 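Assay on Mycobacterium tuberculosis, filed only as a heat shock assay from Cornell; the read-out is not stated. The concentration is filed as 10 mM, unlikely as a test dose, so the dose is not known. Higher reads as stronger inhibition (inferred: compounds with an IC50 in retests scored well above the rest). About 69,000 compounds were tested under these conditions; 1.4% (about 930) showed 50% or more at least once.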
Mtb growth Cornell: 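Whole-cell assay for inhibitors of Mycobacterium tuberculosis growth, labelled Cornell in the record; the read-out is not stated. The concentration is filed as 10 mM, unlikely as a test dose, so the dose is not known. Higher means stronger inhibition (inferred from two other growth screens of the library). Size under these conditions: about 53,000 compounds, about 900 of them at 50% or above in at least one test.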
LdMetRS: 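Methionyl-tRNA synthetase (putative), Leishmania donovani (UniProt E9BF75). Primary screen of methionyl-tRNA synthetase; the read-out is not stated. The test concentration is not given. Values are per cent inhibition. Of about 68,000 compounds tested this way, about 24 (0.035%) reached 50% or more in at least one test.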

All values are in %.
How 0% and 100% were set is not recorded. Most values in the screen are low, and negative values occur.
Compounds were drawn at random from those tested, without regard to their results.

With O=C(C1CCOC1)N1CCC(Cn2cc(-c3ccsc3)nn2)CC1 (stereo not shown) the screen gave Mtb heat-shock: 9.851%; LdMetRS: 4.982%. With CCN1CC(C(=O)N(C)Cc2ccon2)CC1=O (stereo not shown) the screen gave Mtb heat-shock: -11.21%; Mtb growth Cornell: -22.53%; LdMetRS: 6.32%. For COCCNC(=O)Cc1cnc(-n2cccc2)s1 the result was Mtb heat-shock: -19.01%; Mtb growth Cornell: 27.89%; LdMetRS: 11.33%. With CCOC1CCCN(C(=O)Nc2cnn(CC(F)F)c2)C1 (stereo not shown) the screen gave Mtb heat-shock: 9.505%; Mtb growth Cornell: 14.03%; LdMetRS: 7.971%. With CN1CCc2nc(C3CCCN(C(=O)CC(C)(C)C)C3)ncc2C1 (stereo not shown) the screen gave Mtb heat-shock: -1.487%; LdMetRS: 20%.

CCCc1cc(=O)n(CC(=O)NCCOC)c(-n2nc(C)cc2C)n1 gave Mtb heat-shock: 103.9%; Mtb growth Cornell: 61.91%; LdMetRS: 15.21%. Result for Cn1c(C2CC2)nc2cc(NC(=O)C3(O)CCCC3)ccc21 was Mtb heat-shock: 0.3461%; Mtb growth Cornell: 2.509%; LdMetRS: 19.79%. Result for Cl.NC(=O)c1ccc(CNC2CC2)cc1 was Mtb heat-shock: -36.02%; Mtb growth Cornell: -15.99%. With COc1ccc(Cl)cc1CCNC(=O)NCc1noc(C)n1 the screen gave Mtb heat-shock: 7.401%; Mtb growth Cornell: 15.04%; LdMetRS: 10.97%. Result for CCN(C)Cc1n[nH]c(=O)n1-c1ccc(C)c(C)c1 was Mtb heat-shock: 0.05064%; LdMetRS: 16.97%.

With c1cn(-c2cnc(C3CCCNC3)cn2)cn1 (stereo not shown) the screen gave LdMetRS: 3.859%. Cc1nc(CN2CCOC3(CCCC3)C2)oc1C read Mtb heat-shock: 0.8911%; Mtb growth Cornell: 18.48%; LdMetRS: 15.26%. Result for CN(C)c1ccc(C(=O)N2C[C@@H](CN3CCCCC3)[C@@H](CO)C2)cc1 was Mtb heat-shock: -32.23%; Mtb growth Cornell: -6.212%; LdMetRS: 16.76%. CN(C)[C@H]1COC[C@@H]2CN(Cc3ccc4c(c3)OCO4)C[C@@H]21 read LdMetRS: 11.5%. With NC(=O)C1CCN(c2ncc(-c3cnccn3)c([C@H]3CCCO3)n2)CC1 the screen gave Mtb heat-shock: 8.136%; Mtb growth Cornell: 0.3991%; LdMetRS: 7.12%.

Result for [H][C@@]12CN(C(=O)c3ccc(C)cc3)C[C@]1([H])CN(c1ncccn1)C2 was Mtb heat-shock: -14.95%; Mtb growth Cornell: -3.159%. O=C1CC2(CCN(CCCO)CC2)CN1Cc1ccc(F)c(F)c1 gave Mtb heat-shock: 10.08%; Mtb growth Cornell: 20.48%; LdMetRS: 11.83%. Result for CN1CC(NC(=O)CCOc2cccc(Cl)c2)CC1=O (stereo not shown) was Mtb heat-shock: -18.44%; Mtb growth Cornell: -36.63%; LdMetRS: -1.504%. Cc1nnc(CCNC(=O)c2coc(CN3CCOCC3)c2)s1 gave Mtb heat-shock: 3.517%; LdMetRS: 15.38%. For O=C(c1cccs1)N1CCc2ncc(Cn3cncn3)n2CC1 the result was Mtb heat-shock: 1.511%; Mtb growth Cornell: 0.5684%; LdMetRS: 12.94%.

With COC(=O)C1CCN(C(=O)c2cc(Br)ccc2-n2cnnn2)CC1 the screen gave Mtb heat-shock: 2.772%; Mtb growth Cornell: 3.31%; LdMetRS: 12.2%. Result for Cc1noc(C)c1S(=O)(=O)N1CCC(Oc2cnccn2)CC1 was Mtb heat-shock: -7.223%; Mtb growth Cornell: -33.72%; LdMetRS: 2.158%.

From ChEMBL document CHEMBL3988442, “University of Dundee, Small-Polar-MMV Screening Library” (2021).